# Library screen at single concentrations

T. brucei: 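Whole-parasite assay of Trypanosoma brucei over 72 hours; the read-out is not stated. Concentration: 30 µM. Higher reads as stronger inhibition (inferred: compounds with an IC50 in retests scored well above the rest). Values scatter widely below zero; nearly all retest evidence comes from the higher of the two concentrations used. Of about 64,000 compounds tested this way, about 940 (1.5%) reached 50% or more in at least one test.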
Toxoplasma: 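Assay of Toxoplasma gondii numbers, read through their beta-galactosidase reporter with a colour substrate. Tested at 10 µM. The record gives no direction; the compounds picked for IC50 retests had high values, so higher reads as fewer parasites. Size under these conditions: about 67,000 compounds, about 260 of them at 50% or above in at least one test.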

Results are given as percent effect.
How 0% and 100% were set is not recorded. Most values in the screen are low, and negative values occur.
The compounds are a random part of those screened.

For COc1ccc(CCNC(=O)N2CCCC(c3nncn3C)C2)cc1 (centres undefined) the result was Toxoplasma: 14.9%. CC(=O)N1N=C(c2ccco2)OC1C(=O)NCCc1ccc(O)cc1 (centres undefined) gave T. brucei: 14.87%; Toxoplasma: -23.9%. With CCOC(C)c1nc(Cn2cc(-n3cccc3)cn2)cs1 (centres undefined) the screen gave T. brucei: -12.1%; Toxoplasma: 2.709%. CCC(CC)C(=O)NCc1c(C)nn(C)c1N1CCCN(C)CC1 gave T. brucei: -53.07%; Toxoplasma: 12.97%. With CCn1cnnc1C1CCN(C(=O)c2ccoc2C)CC1 the screen gave T. brucei: -20.79%; Toxoplasma: -10.65%. c1ccc2oc(NC3CCCN(Cc4noc(C5CC5)n4)C3)nc2c1 (centres undefined) read T. brucei: 1.596%; Toxoplasma: 3.808%. CCOC(=O)N1[C@@H](c2ccco2)[C@@H](CO)C[C@]12CCCCNC2=O read T. brucei: -33.77%; Toxoplasma: -28.52%.

For O=c1ccc(-n2cccn2)nn1CCNS(=O)(=O)c1ccc(F)c(Cl)c1 the result was T. brucei: 8.146%; Toxoplasma: 29.09%. COCCOc1ccc(NC(=O)C2CC(=O)N(C(C)C)C2)cn1 (centres undefined) read T. brucei: -3.304%; Toxoplasma: -24.4%. Result for CCN1CC(COC(=O)c2cc(Br)ccc2F)CC1=O (centres undefined) was T. brucei: -32.81%; Toxoplasma: 2.387%. CCc1ncncc1C(=O)N1CCN(Cc2ccco2)CC1 gave T. brucei: -33.64%; Toxoplasma: -2.825%. Result for COc1ccc(C(=O)NCC(c2cccn2C)N2CCN(C)CC2)cc1 (centres undefined) was T. brucei: 2.298%; Toxoplasma: -2.383%. For O=C(NCc1cc(=O)n2c(n1)CN(CC1CC1)CCC2)c1ccsc1.O=C(O)C(F)(F)F the result was T. brucei: -32.73%; Toxoplasma: -69.51%. CC(C)c1cc(N2CCC(C(C)N3CCCC3)CC2)n2nccc2n1 (centres undefined) read T. brucei: 88.53%; Toxoplasma: -8.621%.

[H][C@]12CC[C@]([H])(C1)N(C(=O)c1cccnc1-c1cc(OC)ccc1F)C2 gave T. brucei: -6.323%; Toxoplasma: -87.77%. For Cc1ccc(OCCC(=O)NC2CCc3nccn3C2)cc1 (centres undefined) the result was T. brucei: 22.28%; Toxoplasma: 4.776%. Result for Cc1cccc(C)c1CNC1(CCO)CCOCC1 was T. brucei: -0.6851%; Toxoplasma: 8.325%. Result for CN(C)CCO[C@H]1C[C@@H](O)C12CCN(c1nccc3ccccc13)CC2 was T. brucei: 19.31%; Toxoplasma: 7.991%. O=C(Cc1noc2ccccc12)N1CCC(Nc2cccnn2)CC1 gave T. brucei: -18.41%; Toxoplasma: 20.21%. With COc1cccc(-c2n[nH]c3c2CN(C(=O)c2cccc(=O)[nH]2)CC3)c1 the screen gave T. brucei: -5.508%; Toxoplasma: -0.8759%. Cc1cnccc1Cn1ccnc1C1CCOC1 (centres undefined) read T. brucei: -13.99%; Toxoplasma: 3.22%.

With Cc1nccc(CNC(=O)NCCOc2ccc(F)c(F)c2)n1 the screen gave T. brucei: 8.406%; Toxoplasma: -4.962%. O[C@H]1CCN(CCCOc2ccccc2F)C[C@@]12CCCO2 read T. brucei: 1.218%; Toxoplasma: 0.4634%. Result for CCN(CC)CC1CN(Cc2c(C)noc2C)Cc2nccn2C1 (centres undefined) was T. brucei: 4.205%; Toxoplasma: -0.7189%. For N#CC1(NC(=O)c2ccc(-c3nc(C4CC4)n[nH]3)cc2)CCC1 the result was T. brucei: -2.758%; Toxoplasma: 6.439%. Result for CC(C)NC(=O)c1nnn(-c2ccccc2)c1C1CC1 was T. brucei: -27.44%; Toxoplasma: -6.407%. With O=C(NCCNC1CCN(c2nccs2)CC1)c1cccs1 the screen gave T. brucei: -13.21%; Toxoplasma: -1.89%. Cc1nn(CC(=O)N2CCN(Cc3cnn(C)c3C)CC2)cc1Br gave T. brucei: -12.62%; Toxoplasma: -3.684%.

For COCC(=O)N1CCC2(COCc3cnc(NCc4ccco4)nc32)C1 (centres undefined) the result was T. brucei: -35.05%; Toxoplasma: 12.11%. Result for CCN1CC2(CC1=O)CN(Cc1ccsc1)CCN(C(=O)C(C)C)C2.O=C(O)C(F)(F)F (centres undefined) was T. brucei: -7.998%; Toxoplasma: -7.478%. Cc1nn(C)cc1CN(C)C(=O)c1cccnc1 read Toxoplasma: 19.15%. O=S1(=O)CCN2C(=N1)Oc1ccc(S(=O)(=O)N3CCCC3)cc12 read T. brucei: 3.479%; Toxoplasma: 11.83%. With CC(C)(C)OC(=O)N1CCCN1C(=O)c1cccc(F)c1F the screen gave T. brucei: -11.62%; Toxoplasma: -1.27%. For CC(C)(CN1CCC(Cc2cccc(C(=O)O)c2)C1)N1CCOCC1 (centres undefined) the result was T. brucei: -50.97%; Toxoplasma: 10.63%. With CN(C)CCn1c2c(ccc1=O)CCN(C(=O)c1cccs1)CC2.O=C(O)C(F)(F)F the screen gave T. brucei: -37.11%; Toxoplasma: 22.87%.

For OCC(O)CSCc1cn(-c2ccc(F)c(Cl)c2)nn1 (centres undefined) the result was T. brucei: -39.73%; Toxoplasma: -2.401%. Result for CCOCC(=O)N1CCCn2c(CN3CCOCC3)nnc2C1 was T. brucei: -18.96%; Toxoplasma: 3.273%. With CCOCc1nccc(-c2ccc(OCC)c(C(=O)O)c2)n1 the screen gave T. brucei: -24.28%; Toxoplasma: -9.82%. Cc1ncc(CC(=O)N2CCC3(CCC(=O)N(CCO)C3)CC2)c(=O)[nH]1 gave T. brucei: 8.357%; Toxoplasma: 8.88%. O=S1(=O)COCCN1Cc1ccc(Cl)c(Cl)c1 gave T. brucei: -0.9163%; Toxoplasma: 8.516%.

Data taken from ChEMBL document CHEMBL3988442, “University of Dundee, Small-Polar-MMV Screening Library” (2021).